# Measured values taken from the supplement of paper PMC3334620.
# Over roughly 33,000 sequences, “E-score (-0.5 to 0.5)” has its median near -0.015; the highest 2% begin near 0.3. Some of the results follow.
# Molecular target: T1, Abf1 (UniProt P14164)
# T1 sequence: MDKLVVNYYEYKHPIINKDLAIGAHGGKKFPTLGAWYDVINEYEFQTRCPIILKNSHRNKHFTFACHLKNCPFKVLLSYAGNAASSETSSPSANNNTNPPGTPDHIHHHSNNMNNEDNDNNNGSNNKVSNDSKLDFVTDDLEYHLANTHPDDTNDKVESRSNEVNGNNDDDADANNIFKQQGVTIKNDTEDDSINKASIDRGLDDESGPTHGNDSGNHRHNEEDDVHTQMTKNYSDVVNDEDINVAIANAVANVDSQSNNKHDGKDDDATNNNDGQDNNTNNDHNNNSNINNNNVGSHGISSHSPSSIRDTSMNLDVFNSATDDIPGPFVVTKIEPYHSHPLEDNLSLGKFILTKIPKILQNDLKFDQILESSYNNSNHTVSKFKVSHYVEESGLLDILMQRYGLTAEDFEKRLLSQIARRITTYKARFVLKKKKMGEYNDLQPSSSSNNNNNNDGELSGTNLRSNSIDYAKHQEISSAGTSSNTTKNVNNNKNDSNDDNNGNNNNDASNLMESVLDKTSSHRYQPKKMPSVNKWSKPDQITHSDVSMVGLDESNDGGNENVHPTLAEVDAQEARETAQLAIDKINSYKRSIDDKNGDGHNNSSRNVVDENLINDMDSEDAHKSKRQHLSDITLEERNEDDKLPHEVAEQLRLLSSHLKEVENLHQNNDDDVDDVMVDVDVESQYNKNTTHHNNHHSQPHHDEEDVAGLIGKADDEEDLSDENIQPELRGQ
# Experiment: PBM E-score (8-mer binding enrichment) (E-score (-0.5 to 0.5)); higher = stronger / more preferred TF binding
# Settings: protein concentration: 200 nM; construct: GST-full length
# Method in brief: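 Bound GST-tagged yeast transcription factors, applied at about 100-200 nM to double-stranded universal all-10-mer Agilent arrays, were detected with fluorescent anti-GST. Scans were normalised with masliner. A modified Wilcoxon-Mann-Whitney statistic, the E-score, was assigned to each ungapped eight-base word pooled with its reverse complement by the Universal PBM Analysis Suite.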
row,Sequence,PBM E-score
1,TTATTCAA,0.233
2,GTGGTTTA,-0.0445
3,CAGAGCGA,0.111
4,AACCCTCG,-0.127
5,CCTCGCAA,-0.185
6,ACATCTAA,-0.0374
7,GCGCGCCA,0.0425
8,AGGGACGG,-0.104
9,GGAGACAC,0.0682
10,CACTATAC,-0.00384
11,AATGTGTA,0.00412
12,GAGTGAAC,-0.115
13,TATCGCAA,0.0851
14,CAGAAGCC,-0.0653
15,CGCCGCGC,-0.15
16,CGCTACAC,0.00471
17,ACTTAACA,0.139
18,ACAAAGCA,0.115
19,AGCTCACG,-0.042
20,CGAGACAA,-0.038
21,ATCGTAAT,0.146
22,CCATTCAA,0.0605
23,AGCTAATG,0.078
24,ATACCTGC,-0.0717
25,ATGTTTTC,0.133

# Some values from above.
# For PBM E-score, CAGAGCGA shows 0.111
# For PBM E-score, AACCCTCG shows -0.127
# For PBM E-score, GTGGTTTA shows -0.0445
# For PBM E-score, ACATCTAA shows -0.0374
# For PBM E-score, AATGTGTA shows 0.00412

# Next entries

row,Sequence,PBM E-score
1,ATCAAATA,0.235
2,GATGTGCA,-0.118
3,CAAGAACG,0.123
4,ATGGTTGC,-0.146
5,ATGACGTA,0.211
6,CATTGGCG,-0.25
7,ATAGTGAC,0.35
8,CACCCAGA,-0.0576
9,CCTTGTTC,-0.212
10,ATCCTAAT,0.0915
11,ATCATCTA,0.291
12,ACCCAGCA,-0.188
13,AGGAACAG,-0.208
14,CTACAGAC,-0.229
15,ATTCTAGG,0.0854
16,GCAGCGAA,0.0653
17,ACTCTCCT,-0.168
18,AGCCAGCG,-0.281
19,CGGAGTGA,0.237
20,CAAAGGGG,-0.0494
21,AGATTCAG,-0.14
22,CCTAGGCC,-0.277
23,GCCGACGC,-0.159
24,ACTCTCTA,-0.0552
25,AATGTCAG,-0.169

row,Sequence,PBM E-score
1,CAAAGATC,0.0538
2,GACGACAC,0.252
3,AACAGCCG,-0.168
4,CAGATGAA,-0.123
5,ACCGGCAA,-0.259
6,AGTTTACC,-0.0701
7,ACAGCATA,0.113
8,GCAGCGCA,-0.223
9,CTTTATCA,0.313
10,GCATCTCA,0.0322
11,CAAACAAG,-0.17
12,CACAACTC,0.0448
13,AAACGCCC,0.133
14,ATGCATCA,0.22
15,ATACAAGG,-0.0856
16,CTTTGAGA,0.156
17,ATTCCGCA,0.123
18,AACCCATG,0.00204
19,AAATGTTC,0.16
20,CTAAAAGC,-0.181
21,CAACATTC,-0.0911
22,TGCCACAA,0.0174
23,CGTTACGC,0.0353
24,CCCCCTTC,-0.464
25,TAACGGAA,0.0913

row,Sequence,PBM E-score
1,CACTTGGG,-0.0864
2,ACCCGGGT,-0.155
3,AGCGCTTC,0.0607
4,CAAAATGG,0.0567
5,CCCGAACG,0.0124
6,AGTATCAG,-0.00211
7,ATGGCAAG,0.0854
8,CTCGAGGA,-0.1
9,ACGGGACC,-0.119
10,AAGAGCAT,-0.0336
11,ACATGGTG,0.109
12,CTACATAG,0.0196
13,CTGATCCC,-0.116
14,GCTTGCGA,0.0664
15,ATTCATTG,0.0974
16,ACCACGAC,0.161
17,AAGCTCAC,0.105
18,AGATGGCT,-0.106
19,CCCCTCGG,-0.125
20,ACAACGGA,0.233
21,ATCACATG,0.0987
22,GCCAATAC,-0.111
23,ATAAGTGA,0.3
24,AGCGTAGA,-0.17
25,AGCTGCCC,0.102

row,Sequence,PBM E-score
1,AATCAGGA,-0.0118
2,GACCCGCC,-0.133
3,GTACACCA,-0.148
4,CAGACTCA,-0.218
5,ACTCGCCG,-0.0223
6,CATCCCGC,0.0181
7,CGTCGCGC,0.158
8,GGACGATA,0.268
9,AGCCGCGA,-0.183
10,ATACGAGG,0.179
11,ATGAGCGC,0.0585
12,AAAGATTA,0.124
13,CGCTCTTC,-0.178
14,AAACTAGT,-0.0126
15,GATTCCGA,-0.0139
16,GGACAGAA,-0.133
17,CATGGCTA,0.0942
18,GCTTATTA,0.191
19,ACGTTATG,0.0618
20,CCTAACAG,-0.104
21,TCGCCTAA,-0.0538
22,GACGGGCA,0.0489
23,CGCAGTAC,-0.177
24,AGCTCATC,-0.224
25,AACTCGAA,-0.0259

row,Sequence,PBM E-score
1,GATGCAAC,-0.0139
2,CTTGCTGC,-0.0947
3,CGTTCAAC,0.276
4,AGGAAAGG,-0.122
5,ACACGAAG,0.269
6,TTAAGGAA,0.0723
7,ACCGTGAG,0.125
8,CTAGATCA,0.161
9,ATGTAAGG,-0.0364
10,CCAGAGCC,-0.164
11,GACTAATA,0.0833
12,CGCTTCTC,-0.154
13,ACGGCCGA,0.151
14,CAGCGTCG,-0.0875
15,GGAACTGA,-0.177
16,ACGGATAG,0.101
17,AGTTAGCC,0.056
18,CAAACCCG,0.204
19,GATCTATA,0.163
20,CTGGCCAC,-0.131
21,ACCTGTCC,-0.19
22,GATTTGTA,0.163
23,CGCTTTAG,-0.0454
24,GTTGTTGA,-0.0511
25,AGTGAACA,-0.0718

# Reformatted: results already given.
row	Sequence	PBM E-score
22	GCCAATAC	-0.111
23	ATAAGTGA	0.3

# The listing continues.

row,Sequence,PBM E-score
1,TGGTCGAA,-0.0878
2,TAGAAATA,0.0745
3,AGAATGCC,-0.0624
4,AATTTTGC,-0.118
5,AAGCCCTG,-0.0659
6,AATATGCG,0.198
7,GAAATGAC,0.312
8,CCACTATA,0.0935
9,GTTTCCGA,-0.0193
10,GCCGGAGC,-0.139
11,CCCATTCG,-0.0848
12,GCAGGACC,-0.223
13,CCATATGC,0.0265
14,CAGCATCG,-0.122
15,AGGGATTC,-0.00272
16,CGCTGGCA,0.21
17,CCCCATAA,-0.132
18,CCTATTAG,-0.0388
19,TCAGGGAA,-0.149
20,TCTTGCCA,-0.11
21,AAATGCAG,0.0843
22,GCGCCATA,-0.099
